According to patent US8541367B2, “Plasma anti-diabetic NUCB2 peptide (pladin) and uses thereof” (Landing Biotech, Inc., priority 2009, dated 2013):
At least one structure is not confirmed: it was looked up by name or label, or the drawing left a doubt.

Tested on: db/db mice
Test: Blood glucose of db/db mice after injection of test substance
Format: in vivo, mouse
Conditions: GW9662 0.45 ug/g i.v., rosiglitazone or Compound C 20 ug/g i.p., then 10 nmol rPladin i.v., 3 hours
Description: GW9662, a PPAR-gamma irreversible inhibitor, was i.v. injected into the tail vein of db/db mice at the dose of 0.45 μg per gram body weight. After 30 minutes, 100 ug Nesfatin-1 was injected into the tail vein of db/db mice. Blood glucose was measured in 6 hours.
Compound C, a 5′-AMP-activated protein kinase (AMPK) specific inhibitor, was intraperitoneally injected to db/db mice at the dose of 20 mg per kg body weight. Subsequently, 100 ug Nesfatin-1 was injected into the tail vein of db/db mice. Blood glucose was measured in 6 hours.
Without anesthesia, mice were placed into a restricting tube. The testing substance such as nesfatin-1 or rPladin was i.v. injected via mice tail vein with a total volume of 150 μL. After that mice were returned to the cages with food and water available freely. In the i.p. injection experiment, mice without anesthesia were injected with the testing substances directly into the peritoneal with a total volume of 200 μL.
db/db mice of 16 to 18 weeks old were i.v. injected with 0.45 ug/g of GW9662 (Sigma, St. Louis, Mo.), i.p. injected with 20 ug/g rosiglitazone (Sigma, St. Louis, Mo.) or 20 ug/g Compound C (Sigma, St. Louis, Mo.), and then randomly assigned to receive the i.v. injection of 10 nmol rPladin or the same volume of saline as the control. Blood glucose was measured at 3 hours after the injection using the glucose meter (Roche, Indianapolis, Ind.).

CN(CCOc1ccc(CC2SC(=O)NC2=O)cc1)c1ccccn1 (stereo not shown) [rosiglitazone]
effect of pre-injection on the anti-hyperglycemic effect of rPladin: did not affect the effect of rPladin
